Experimental findings from patent publication US4505897A (The Administrators of the Tulane Educational Fund, priority 1983, dated 1985) are described below.

The data set is described as follows: general procedure: Boc solid-phase peptide synthesis; Boc-D-Trp-Merrifield resin (1% cross-linked). Conditions: whole synthesis, scale 0.5 mmol.

“Nε-tert-butyloxycarbonyl-L-lysyl-O-benzyl-L-threonyl-L-prolyl-L-phenylalanyl-D-tryptophyl-NHNH2” yielded a crude mass of 0.65 g.
